Taken from: PubChem BioAssay AID1259308 (NCATS, 2017)
In all, the deposit lists about 59,000 reagents; this is a part drawn at random. About 1,510 of all reagents (2.6%) were called active. 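Calls use total luciferase alone and ignore viability, so some active siRNAs may act by altering cell number.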 Unmarked entries are inactive. Reagents against one gene are numbered here. Further read-outs or replicates are left out here. No sequences are given here.

Screen: 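Candidate targets for better recombinant protein yield in mammalian cells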 (primary screen)
Cells: human HEK293 embryonic kidney cells stably expressing firefly luciferase (HEK-CMV-Luc2-Hygro)
Reagents: single siRNA against human genes, 0.8 pmol siRNA per well
Timing: 72 h
Read-out: 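Luciferase light (ONE-Glo) measured on one replicate plate set and viability (CellTiter-Glo) on the other, scaled to a negative control siRNA, with robust z-scores and luciferase per cell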
Scale: total luciferase, z-score: higher = more reporter protein produced
Hit rule: 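An siRNA counts as active if its total luciferase robust z-score exceeds 3; genes with two or more such siRNAs out of three were retested with fresh siRNAs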
Calls: active = raised luciferase; inactive = no rise

total luciferase, z-score, by gene symbol and reagent
UNC93B2 (unc-93 homolog B2 (pseudogene)): #1 -0.218; #2 -0.213; #3 2.25; #4 -0.323; #5 3.38 (active); #6 3.26 (active)
BET1L (Bet1 golgi vesicular membrane trafficking protein like): #1 -0.694; #2 1.31; #3 -0.58
DEFB134 (defensin beta 134): #1 1.94; #2 -0.389; #3 -0.135
ARHGAP9 (Rho GTPase activating protein 9): #1 1.64; #2 -1.04; #3 1.17
DCAF8 (DDB1 and CUL4 associated factor 8): #1 -0.612; #2 0.091; #3 -0.996
RSPRY1 (ring finger and SPRY domain containing 1): #1 -0.411; #2 0.0271; #3 -0.738
PPP3CC (protein phosphatase 3 catalytic subunit gamma): #1 -2.62; #2 1.35; #3 -1.13
PRKCG (protein kinase C gamma): #1 1.14; #2 -0.685; #3 5.31 (active)
RABEPK (Rab9 effector protein with kelch motifs): #1 1.22; #2 -1.87; #3 -0.642
PUM1 (pumilio RNA binding family member 1): #1 -0.236; #2 1.37; #3 0.0867
HFE (homeostatic iron regulator): #1 -0.203; #2 1.76; #3 -1.92
CD28 (CD28 molecule): #1 0.743; #2 -0.401; #3 -1.37
PRDX4 (peroxiredoxin 4): #1 -1.23; #2 0.00727; #3 0.185
EEF1DP3: #1 0.32; #2 -0.659; #3 -0.22
CDCA3 (cell division cycle associated 3): #1 2.49; #2 2.43; #3 0.85
SAPCD1 (suppressor APC domain containing 1): #1 -0.86; #2 -0.954; #3 1.75
DLG4 (discs large MAGUK scaffold protein 4): #1 -0.173; #2 0.272; #3 -0.688
RBBP5: #1 -1.1; #2 0.451; #3 -0.296

Ordered by “total luciferase, z-score” (highest first): 5 of the entries above
gene symbol	siRNA no.	total luciferase, z-score
UNC93B2 (unc-93 homolog B2 (pseudogene))	5	3.38 (active)
UNC93B2 (unc-93 homolog B2 (pseudogene))	6	3.26 (active)
UNC93B2 (unc-93 homolog B2 (pseudogene))	3	2.25
UNC93B2 (unc-93 homolog B2 (pseudogene))	2	-0.213
UNC93B2 (unc-93 homolog B2 (pseudogene))	4	-0.323
